Data as given in PubChem BioAssay AID504793 (Drosophila RNAi Screening Center, 2011).
In all, the deposit lists about 23,000 reagents; this is a random part of those with a known target gene and a result. Of all reagents, 62 (0.27%) got an active call. 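Calls come from follow-up tests whose scores are not deposited, so confirmed genes may have low counts here; counts are not normalised per plate.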 Raw values vary from plate to plate and are shown uncorrected. Entries without a mark were called inactive. Reagents against one gene are numbered here. A plus sign joins genes that one reagent is predicted to hit.

- Screen: 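Genes required for cells to halt at G2/M after double-strand DNA breaks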 (primary screen)
- System: Drosophila S2R+ cells
- Reagent: long dsRNA against Drosophila genes, about 0.25 µg dsRNA per well
- Time to read-out: 4 days of dsRNA, then 4 hours of drug before read-out
- Challenge: doxorubicin 0.5 µM for 4 hours to cause double-strand breaks, in cells also given a low, harmless dose of dsRNA against nbs to sensitise the assay
- Detection: 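Mitotic index as the number of phospho-histone H3-positive cells in each well following doxorubicin, given as raw counts without normalisation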
- Direction: mitotic cells: higher = more cells in mitosis, weaker G2 arrest
- Call rule: 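a call needs confirmation in secondary tests, with other dsRNAs and a check of mitotic timing without damage, not just a high primary count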
- Meaning of the calls: active = confirmed in follow-up tests; inactive = not confirmed

gene knocked down	reagent no.	mitotic cells, replicate 1	mitotic cells, replicate 2
Sf3b5	1	7	
Als2	1	5	
SmydA-7	1	8	
CG17816	1	5	13
CG17816	2	12	
CG7810	1	9	
CG7810	2	10	
CG14478	1	3	
CG1647	1	2	
fw	1	11	
fw	2	9	
Bug22	1	3	
scat	1	5	
scat	2	1	
CG10467	1	3	
Klp10A	1	20	
Klp10A	2	14	
sut1	1	4	
Dbp80	1	13	
Tig	1	1	
Tig	2	5	
Pa1	1	9	
Pa1	2	9	
CG12725	1	14	
CG12725	2	5	
Ugt36D1	1	8	
Pgant5	1	9	
CG17105	1	6	
CG17105	2	8	
Ktch	1	18	
Ktch	2	9	
PolI	1	6	
CG14655	1	14	
CG14655	2	5	
Npc2f	1	3	
CG7271 + term	1	12	
CG3330	1	13	
CG9692	1	5	
Rab6	1	11	
Rab6	2	5	

The list goes on (10 carried over from the part before).
gene knocked down	reagent no.	mitotic cells, replicate 1	mitotic cells, replicate 2
Ktch	2	9	
PolI	1	6	
CG14655	1	14	
CG14655	2	5	
Npc2f	1	3	
CG7271 + term	1	12	
CG3330	1	13	
CG9692	1	5	
Rab6	1	11	
Rab6	2	5	
l(3)07882	1	4	
CG1428	1	3	
AnxB10	1	1	
AnxB10	2	5	
gom	1	5	
t-Grip128	1	13	
t-Grip128	2	7	
CG6650	1	3	
CG1288	1	6	
CG1288	2	2	
Ent1	1	4	
CG14645	1	3	
sima	1	6	
sima	2	2	
rho-5	1	10	
rho-5	2	9	
Ufd4	1	6	
l(1)10Bb	1	8	
CG31097	1	10	
Hr38	1	10	
Hr38	2	4	
CG12783	1	14	
CG6044	1	5	
Hakai	1	8	
CG6567 + CG4565	1	2	
CG31321	1	7	
CG31321	2	9	
CG14105	1	3	
CG7655	1	5	
WDR79	1	5	
cnn	1	9	
cnn	2	10	
pyd	1	4	
pyd	2	7	
pyd	3	4	
pyd	4	9	
pyd	5	5	
pyd	6	13	
pyd	7	7	
Prosbeta3	1	69	
Gr77a	1	6	
Gr77a	2	6	
sdt	1	8	
sdt	2	10	
sdt	3	10	
sdt	4	16	
sdt	5	12	
sdt	6	11	
sdt	7	7	
Tmem18	1	4	
IFT52	1	10	
IFT52	2	10	
PGAP2	1	5	
PGAP2	2	8	
Atg101	1	1	
CG17233	1	2	
clumsy	1	6	
CG32260	1	3	
CG32260	2	9	
TSG101	1	4	
Fkbp59	1	4	
Fkbp59	2	3	
mRpL16	1	2	
mRpL16	2	8	
CG9338	1	4	
CG9338	2	10	
trv	1	10	
trv	2	12	
trv	3	9	
trv	4	5	
trv	5	3	
